One molecule from PMC5725456 can be followed below.

For the assay, the target named is T1, myc-tagged TRAF6 (wild type), P70196.
T1 chain: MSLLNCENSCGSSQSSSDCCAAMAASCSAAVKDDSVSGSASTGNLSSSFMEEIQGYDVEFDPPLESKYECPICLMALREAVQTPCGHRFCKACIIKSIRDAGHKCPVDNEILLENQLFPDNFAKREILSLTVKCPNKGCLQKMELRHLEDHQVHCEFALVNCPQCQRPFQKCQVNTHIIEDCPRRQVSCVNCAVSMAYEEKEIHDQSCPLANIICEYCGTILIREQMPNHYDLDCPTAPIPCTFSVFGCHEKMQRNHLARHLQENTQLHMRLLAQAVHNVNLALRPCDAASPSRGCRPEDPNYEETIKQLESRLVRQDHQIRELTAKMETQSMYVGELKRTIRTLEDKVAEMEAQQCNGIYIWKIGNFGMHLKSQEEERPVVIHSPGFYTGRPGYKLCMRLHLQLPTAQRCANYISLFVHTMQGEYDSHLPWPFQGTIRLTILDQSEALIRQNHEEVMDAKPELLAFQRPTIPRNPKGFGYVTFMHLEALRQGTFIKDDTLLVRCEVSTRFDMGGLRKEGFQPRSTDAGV
Nature of the assay: co-IP; HEK293T cells expressing both tagged constructs; immunoprecipitation by HA (or myc) and immunoblot for myc (or HA); in the presence or absence of Mirt2. The settings on record: remark: other sources report otherwise.

No constants are given. Whether binding was seen depends on the method and setting. In cells and extracts the contact can be indirect. Some results given as binding are weak or reduced against the parent protein; the word gives no strength. Sequences can lack the tags named with a protein.

B1: myc-tagged TRAF6 (wild type), P70196 1-530 (protein)
chain: MSLLNCENSCGSSQSSSDCCAAMAASCSAAVKDDSVSGSASTGNLSSSFMEEIQGYDVEFDPPLESKYECPICLMALREAVQTPCGHRFCKACIIKSIRDAGHKCPVDNEILLENQLFPDNFAKREILSLTVKCPNKGCLQKMELRHLEDHQVHCEFALVNCPQCQRPFQKCQVNTHIIEDCPRRQVSCVNCAVSMAYEEKEIHDQSCPLANIICEYCGTILIREQMPNHYDLDCPTAPIPCTFSVFGCHEKMQRNHLARHLQENTQLHMRLLAQAVHNVNLALRPCDAASPSRGCRPEDPNYEETIKQLESRLVRQDHQIRELTAKMETQSMYVGELKRTIRTLEDKVAEMEAQQCNGIYIWKIGNFGMHLKSQEEERPVVIHSPGFYTGRPGYKLCMRLHLQLPTAQRCANYISLFVHTMQGEYDSHLPWPFQGTIRLTILDQSEALIRQNHEEVMDAKPELLAFQRPTIPRNPKGFGYVTFMHLEALRQGTFIKDDTLLVRCEVSTRFDMGGLRKEGFQPRSTDAGV
For B1, the binding result is “binds”.
